Results deposited as PubChem BioAssay AID1259290 (Sanger Institute, 2017).
Assay: 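Identify kinases needed for colorectal cancer cell survival, with or without anchor drugs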 (primary screen). Cells: human SNUC1 colorectal cancer cells. Knock-down reagent: siRNA pool against human genes. Challenge: anchor drugs BYL719 1 µM, cetuximab 5 µg/ml or trametinib 10 nM, or DMSO vehicle alone. Measured: 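Viability averaged over replicates and scaled to non-targeting siRNA, robust z-score with no drug, and synergy scores by drug for BYL719, cetuximab and trametinib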. Direction: viability z-score, siRNA alone: higher = more viable cells; low values mean essential gene. Hit rule: 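Essential when the robust viability z-score with siRNA alone falls below -3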. Calls: active = essential: knock-down alone cut viability (z below -3); inactive = no clear viability loss with knock-down alone.
This is a random part of 794 deposited reagents. 9 of all reagents (1.1%) were called active. 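Calls rest on knock-down alone, not drug synergy; synergy above 0.15 was grouped apart and does not affect calls.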 Entries without a mark were called inactive. Not all columns of the deposit are shown. The record does not give: the amount of reagent, the time to read-out.

Gene	PubChem SID	viability z-score, siRNA alone
PRKX	SID152149946	-0.892
CKM	SID56479085	-0.355
GUCY2EP	SID152152788	0.936
PTK2	SID56478542	0.0392
CKS2	SID56479182	0.936
EPHB6	SID152155826	0.292
NEK3	SID152154962	-1.48
TESK1	SID152149255	-0.0688
PTEN	SID152153158	0.604
SMG1	SID152155844	0.00304
CDC42BPA	SID152147424	0.936
CDK4	SID56478598	-1.1

Part of the list above, reformatted:
PTK2 [SID56478542]
- viability z-score, siRNA alone: 0.0392

CKS2 [SID56479182]
- viability z-score, siRNA alone: 0.936

EPHB6 [SID152155826]
- viability z-score, siRNA alone: 0.292

Continued.
Gene	PubChem SID	viability z-score, siRNA alone
PKIA	SID56479258	0.936
CIT	SID56478810	-0.385
NAGK	SID135621243	0.936
CDK17	SID56478886	-0.916
RPS6KA3	SID152150758	-0.0879
ALPK1	SID152152286	-1.24
KRAS	SID134310727	0.00802
FGFRL1	SID135622448	0.936
